In this experiment the target is human MrgX4 L83S (Homo sapiens, UniProt Q96LA9, L83S). The experiment in a line: β-arrestin assay (CHO β-arrestin human MrgX4 L83S). Type of experiment: cell-based.

Sequences of proteins named here, by UniProt entry; tags and fusion partners are left off.
UniProt Q96LA9, whole entry L83S: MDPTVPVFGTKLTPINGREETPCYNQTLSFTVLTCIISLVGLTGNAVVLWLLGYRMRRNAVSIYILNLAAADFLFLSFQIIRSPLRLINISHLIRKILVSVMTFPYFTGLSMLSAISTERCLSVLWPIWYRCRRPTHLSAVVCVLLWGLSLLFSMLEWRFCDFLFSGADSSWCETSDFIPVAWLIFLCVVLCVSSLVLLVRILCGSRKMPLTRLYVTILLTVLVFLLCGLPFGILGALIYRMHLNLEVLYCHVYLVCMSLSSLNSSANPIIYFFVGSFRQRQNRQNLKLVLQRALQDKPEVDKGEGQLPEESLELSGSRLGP

The match of structure and compound is tentative.

A word on the IC50: it is the concentration that inhibits the measured activity by half.

The compound `COc1ccc(-c2cc(=O)n3c(n2)[nH]c2ccccc23)cc1` displayed a 50% inhibitory concentration (IC50) of over 10 µM.

For the origin of these results see patent publication US20210128561A1, “MRGX Receptor Antagonists” (Rheinische-Friedrich-Wilhelms-Universität Bonn, priority 2019, published 2021).
